Experimental data: PubChem BioAssay AID1259314 (Drosophila RNAi Screening Center, 2017)

- Purpose: 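Transmembrane protein genes affecting ATP after manganese overload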 (primary screen)
- System: Drosophila S2R+ cells
- Knock-down reagent: long dsRNA against Drosophila genes
- Duration: 5 days (4 days knock-down, then 1 day metal exposure)
- Challenge: manganese chloride added to 15 mM for 24 hours
- Measured: 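Luciferase ATP signal used as a proxy for viable cell number, reported as one averaged z-score per dsRNA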
- Direction: mean ATP z-score: higher = more ATP than the plate average, more viable cells under manganese
- Active means: 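a mean ATP z-score past 1.5 in either direction is called active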
- Meaning of the calls: active = strong ATP change, up or down; inactive = no strong ATP change
The whole screen tested about 3,100 reagents; this is a random part of them. 289 of them (9.3%) were called active. 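Active includes both higher and lower ATP than plate average; check the z-score sign for direction.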 Entries without a mark were called inactive. The numbers tell different reagents against one gene apart. A plus sign joins genes that one reagent is predicted to hit. Not given: the amount of reagent.

Glut3 #1
- mean ATP z-score: 0.0389

Glut3 #2
- mean ATP z-score: 0.48

Dh44-R2
- mean ATP z-score: 0.977

Start1 #1
- mean ATP z-score: -0.788

Start1 #2
- mean ATP z-score: 0.126

CG3168 #1
- mean ATP z-score: -2.35 (active)

CG3168 #2
- mean ATP z-score: -0.389

Osi13
- mean ATP z-score: -0.868

Surf4 #1
- mean ATP z-score: 0.516

Surf4 #2
- mean ATP z-score: -0.339

C1GalTA
- mean ATP z-score: -0.548

Calx #1
- mean ATP z-score: 0.874

Calx #2
- mean ATP z-score: -0.234

Calx #3
- mean ATP z-score: -0.593

Calx #4
- mean ATP z-score: 1.62 (active)

CG32795 #1
- mean ATP z-score: 0.03

CG32795 #2
- mean ATP z-score: 0.264

Sr-CIII
- mean ATP z-score: -1.95 (active)

Or19a + Or19b #1
- mean ATP z-score: 2.67 (active)

Or19a + Or19b #2
- mean ATP z-score: 1.32

Or10a #1
- mean ATP z-score: 0.0932

Or10a #2
- mean ATP z-score: 0.462

Spp
- mean ATP z-score: 0.266

CG34030
- mean ATP z-score: 1.23

CG7992
- mean ATP z-score: -0.112

Pex12 #1
- mean ATP z-score: -1.51 (active)

Pex12 #2
- mean ATP z-score: 2.85 (active)

PGRP-SD
- mean ATP z-score: 0.27

Esp
- mean ATP z-score: 0.227

Ir60d
- mean ATP z-score: -0.00356

CG9555 #1
- mean ATP z-score: -0.504

CG9555 #2
- mean ATP z-score: -1.37

Fad2 #1
- mean ATP z-score: -2.78 (active)

Fad2 #2
- mean ATP z-score: -0.568

PGRP-SA
- mean ATP z-score: -0.183

Vha16-4
- mean ATP z-score: -0.575

CG1090
- mean ATP z-score: 0.126

Tsp42Eq
- mean ATP z-score: 0.064

polyph
- mean ATP z-score: -0.472

Or56a #1
- mean ATP z-score: -0.0282

Or56a #2
- mean ATP z-score: 0.429

mthl8 #1
- mean ATP z-score: 2.75 (active)

mthl8 #2
- mean ATP z-score: 2.01 (active)

Trp1 #1
- mean ATP z-score: 1.31

Trp1 #2
- mean ATP z-score: 0.622

Gr59b
- mean ATP z-score: 0.203

chk
- mean ATP z-score: -0.00191

5-HT2A #1
- mean ATP z-score: -0.155

5-HT2A #2
- mean ATP z-score: 0.0882

Cpes
- mean ATP z-score: 0.432

PXo
- mean ATP z-score: -1.39

CG11425 #1
- mean ATP z-score: -1.09

CG11425 #2
- mean ATP z-score: -1.49

Targ
- mean ATP z-score: -1.06

CG5078
- mean ATP z-score: -0.951

Ir75c
- mean ATP z-score: -0.382

Cds
- mean ATP z-score: -0.913

Osi20 #1
- mean ATP z-score: -0.311

Osi20 #2
- mean ATP z-score: -0.154

Lrp4
- mean ATP z-score: 1.25
